Source: EP1671630A2, “L-Arginine based formulations for treating diseases and methods of using the same” (Angiogenix, Inc., priority 1999, dated 2000)

Test system: bovine aortic endothelial cells
Assay: Characterization of L-arginine transport system (uptake of [3H]-LA)
Format: cell-based

Row | Compound | share of [^3H]-LA delivered to cells by y+ transporter (BAEC, 20nM [^3H]-LA) | share of total transport by B^α+ transporter system (BAEC, average) [%] | passive diffusion as a percent of total cellular LA uptake (15 minutes of uptake) [%] | passive diffusion as a percent of total cellular LA uptake (60 minutes of uptake) [%]
1 | L-[2,3,4,5-^3H]-arginine monohydrochloride [[^3H]-LA] | ~ 85% | 10 |  | 
2 | N=C(N)NCCC[C@H](N)C(=O)O [L-arginine] |  |  | 5 | 1.5
